Some results were stated once for a whole list of compounds, not compound by compound. Some compounds share one range, which may span the group rather than tell each member.
Experiments:
[1] = target: T1, α4β1 integrin (Homo sapiens, UniProt P05556+P13612); test: U-937 cell adhesion to human VCAM-1 (α4β1 binding assay); type: cell-based; conditions: U-937 cells, immobilized human VCAM-1; bin with mixed units (μM upper, nM lower), units kept in value; read-out: IC50 values in the α4β1 assays
T1 construct: endogenous in cells; host or cells: U-937 cells
Protocol: U-937 Cell Adhesion to Human VCAM-1 (α4β1 Binding Assay)
Recombinant human soluble VCAM-1 (R&D Systems Ltd., UK) at 2 μg/ml in PBS was immobilized overnight onto microtiter plates. Unbound VCAM-1 was washed away and VCAM-1 coated plates were blocked with bovine serum albumin (BSA) 2,5% in PBS for 2 h at room temperature. U-937 cells were labelled with 5-carboxyfluorescein diacetate (5-CFDA) in order to detect bound cells to the wells. Test compounds were added to the wells followed by U-937 cells and the adhesion assay was performed for 1 h at 37° C. Following incubation, the wells were emptied and washed. Inhibition of binding was measured by the quantity of fluorescence bound to the plate for each of the various concentrations of test compound, as well as for controls containing no test compound, with a Cytofluor 2300 fluorescence measurement system.

[2] = target: T2, α4β7 integrin (Homo sapiens, UniProt P13612+P26010); test: RPMI 8866 cell adhesion to mouse MAdCAM-1 (α4β7 binding assay); type: cell-based; conditions: RPMI 8866 cells, immobilized mouse MAdCAM-1; bin with mixed units (μM upper, nM lower), units kept in value; read-out: IC50 values in the α4β7 assays
T2 construct: endogenous in cells; host or cells: RPMI 8866 cells
T2 sequence (P13612 34-1032): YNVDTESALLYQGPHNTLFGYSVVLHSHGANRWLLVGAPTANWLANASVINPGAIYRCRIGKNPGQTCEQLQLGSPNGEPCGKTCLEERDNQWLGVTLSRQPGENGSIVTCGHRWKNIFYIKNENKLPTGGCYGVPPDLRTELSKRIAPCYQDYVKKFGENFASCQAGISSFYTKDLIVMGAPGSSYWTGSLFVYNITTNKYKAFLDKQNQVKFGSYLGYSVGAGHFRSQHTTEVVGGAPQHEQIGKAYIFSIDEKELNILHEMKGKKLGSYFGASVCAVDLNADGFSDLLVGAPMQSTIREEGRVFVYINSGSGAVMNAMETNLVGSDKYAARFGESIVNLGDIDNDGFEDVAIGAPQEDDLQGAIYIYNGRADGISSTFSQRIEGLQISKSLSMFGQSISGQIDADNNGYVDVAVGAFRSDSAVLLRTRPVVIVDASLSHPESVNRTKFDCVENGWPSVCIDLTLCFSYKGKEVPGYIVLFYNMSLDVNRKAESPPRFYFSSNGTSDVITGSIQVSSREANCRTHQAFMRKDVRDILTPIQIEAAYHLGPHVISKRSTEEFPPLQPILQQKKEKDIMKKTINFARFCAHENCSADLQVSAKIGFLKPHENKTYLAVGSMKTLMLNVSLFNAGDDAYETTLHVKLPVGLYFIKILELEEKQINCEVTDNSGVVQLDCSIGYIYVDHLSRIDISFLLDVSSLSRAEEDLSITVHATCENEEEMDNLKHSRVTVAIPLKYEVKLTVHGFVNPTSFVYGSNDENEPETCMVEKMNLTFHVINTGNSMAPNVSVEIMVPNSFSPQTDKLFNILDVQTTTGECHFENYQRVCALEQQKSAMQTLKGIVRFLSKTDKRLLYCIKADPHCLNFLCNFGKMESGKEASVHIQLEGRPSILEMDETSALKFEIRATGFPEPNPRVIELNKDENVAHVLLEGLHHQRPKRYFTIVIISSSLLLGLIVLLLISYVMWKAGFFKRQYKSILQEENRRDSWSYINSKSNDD
T2 sequence (P26010 20-798): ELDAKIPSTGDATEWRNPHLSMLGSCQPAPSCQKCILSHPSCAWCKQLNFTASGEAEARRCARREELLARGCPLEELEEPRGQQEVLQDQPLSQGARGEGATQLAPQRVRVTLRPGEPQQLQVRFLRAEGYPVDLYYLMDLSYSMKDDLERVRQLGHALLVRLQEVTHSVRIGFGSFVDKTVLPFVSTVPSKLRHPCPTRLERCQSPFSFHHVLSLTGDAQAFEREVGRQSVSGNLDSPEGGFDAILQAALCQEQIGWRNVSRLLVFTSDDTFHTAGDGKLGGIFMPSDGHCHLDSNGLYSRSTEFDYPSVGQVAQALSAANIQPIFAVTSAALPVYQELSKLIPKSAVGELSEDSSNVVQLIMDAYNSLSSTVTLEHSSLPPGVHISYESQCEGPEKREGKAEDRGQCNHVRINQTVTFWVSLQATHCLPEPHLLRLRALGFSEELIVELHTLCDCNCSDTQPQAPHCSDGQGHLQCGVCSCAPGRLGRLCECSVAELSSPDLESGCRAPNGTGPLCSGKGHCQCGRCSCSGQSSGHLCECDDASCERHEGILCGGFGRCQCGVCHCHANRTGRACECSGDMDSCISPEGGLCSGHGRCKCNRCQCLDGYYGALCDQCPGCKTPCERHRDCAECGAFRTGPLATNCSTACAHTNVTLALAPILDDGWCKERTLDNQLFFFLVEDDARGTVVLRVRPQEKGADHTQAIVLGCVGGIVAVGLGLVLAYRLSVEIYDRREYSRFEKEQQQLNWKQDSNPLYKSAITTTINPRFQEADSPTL
Protocol: RPMI 8866 Cell Adhesion to Mouse MAdCAM-1 (α4β7 Binding Assay)
Recombinant mouse MAdCAM-1 was coated on a 96-well plate overnight. Unbound MAdCAM-1 was washed away and plates were blocked with 0,5% BSA. Cells were labelled with BCECF-AM and added to ligand-coated wells. Test compounds were added to the wells followed by RPMI 8866 and the adhesion assay was performed for 45 min at room temperature. Following incubation, the wells were emptied and washed. Inhibition of binding was measured by the quantity of fluorescence bound to the plate for each of the various concentrations of test compound, as well as for controls containing no test compound, with a Cytofluor 2300 fluorescence measurement system.

Question: `CN(C)C(=O)Oc1ccc(C[C@H](NC(=O)Nc2ccccc2S(=O)(=O)c2ccccc2)C(=O)O)cc1` [Example 112, (S)-2-[3-(2-Benzenesulfonylphenyl)ureido]-3-(4-dimethylcarbamoyloxyphenyl) propionic acid] was tested. Which IC50 [1] did it give?
Answer: 0.1 to 1 µM

Question: For `CN(C1CCCCC1)S(=O)(=O)c1ccccc1NC(=O)N[C@@H](Cc1ccc(NC(=O)c2c(Cl)cncc2Cl)cc1)C(=O)O` [Example 66], which IC50 [2] is on record?
Answer: 0.1 to 1 µM

Question: How did the IC50 [1] turn out when `CN1CCN(C(=O)Oc2ccc(C[C@H](NC(=O)Nc3ccccc3S(=O)(=O)c3ccccc3)C(=O)O)cc2)CC1` [Example 114, 4-Methylpiperazine-1-carboxylic acid 4-{(S)-2-[3-(2-benzenesulfonylphenyl)ureido]-2-carboxyethyl}phenyl ester] was run?
Answer: 0.1 to 1 µM

Source: patent publication US7253171B2 (Laboratorios Almirall, S.A., priority 2001, dated 2007)
